PubChem BioAssay AID743121 | NCATS, 2013
Purpose: 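Genes whose silencing strengthens cell killing by camptothecin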 (primary screen). Cell system: MDA-MB-231 cells, a human breast cancer line. Reagent: single siRNA against human genes, 20 nM siRNA (0.8 pmol per well). Duration: 120 h (drug added 48 h after transfection, read 72 h later). Challenge: camptothecin 20 nM (about EC30) for 72 h; vehicle 0.1% DMSO in parallel plates. Measurement: 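Cell viability by ATP luminescence (CellTiter-Glo) as % of non-targeting siRNA wells, and the log2 ratio of viability without drug over viability with camptothecin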. Scale: log2 vehicle/camptothecin viability: higher = stronger sensitisation to camptothecin; viability with camptothecin and viability without drug: higher = more viable cells. Active means: 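Active genes have an RSA gene-level p-value below 0.001, computed from the ratios of their separate siRNAs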.
Here is one part, drawn at random, of about 26,000 reagents. 167 of them (0.63%) were called active. 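Calls are per gene from RSA p-values that are not deposited; an individual active-marked siRNA can sensitise only weakly.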 Reagents against one gene are numbered here.

gene	reagent	log2 vehicle/camptothecin viability	viability with camptothecin (% of control)	viability without drug (% of control)	activity call
MLH1 (mutL homolog 1)	1	-0.717	43.6	26.5	inactive
MLH1 (mutL homolog 1)	2	-0.141	97.9	88.8	inactive
MLH1 (mutL homolog 1)	3	-0.273	89	73.7	inactive
MLH1 (mutL homolog 1)	4	-0.51	72.9	51.2	inactive
OAT (ornithine aminotransferase)	1	0.519	57.5	82.4	inactive
OAT (ornithine aminotransferase)	2	-0.298	98.8	80.4	inactive
OAT (ornithine aminotransferase)	3	-0.579	83.3	55.8	inactive
VAV2 (vav guanine nucleotide exchange factor 2)	1	-0.31	116	93.6	inactive
VAV2 (vav guanine nucleotide exchange factor 2)	2	-0.134	72.7	66.2	inactive
VAV2 (vav guanine nucleotide exchange factor 2)	3	-0.102	111	104	inactive
ADRB3 (adrenoceptor beta 3)	1	-0.471	58.1	41.9	inactive
ADRB3 (adrenoceptor beta 3)	2	-0.487	39.5	28.2	inactive
ADRB3 (adrenoceptor beta 3)	3	0.155	26.3	29.3	inactive
ADRB3 (adrenoceptor beta 3)	4	-0.175	46.2	40.9	inactive
SH3BP4 (SH3 domain binding protein 4)	1	-0.453	61.7	45.1	inactive
SH3BP4 (SH3 domain binding protein 4)	2	0.414	57.3	76.4	inactive
SH3BP4 (SH3 domain binding protein 4)	3	1.03	19.5	39.8	inactive
SH3BP4 (SH3 domain binding protein 4)	4	-0.187	88.5	77.7	inactive
ATP2A1	1	-0.0746	98.9	93.9	inactive
ATP2A1	2	-0.511	90.7	63.6	inactive
ATP2A1	3	-0.46	52.1	37.9	inactive
ATP2A1	4	-0.328	44.5	35.4	inactive
NR2F2 (nuclear receptor subfamily 2 group F member 2)	1	0.163	114	127	inactive
NR2F2 (nuclear receptor subfamily 2 group F member 2)	2	-0.287	94.2	77.2	inactive
NR2F2 (nuclear receptor subfamily 2 group F member 2)	3	-0.289	84	68.7	inactive
NR2F2 (nuclear receptor subfamily 2 group F member 2)	4	-0.0862	57.8	54.4	inactive
TSLP (thymic stromal lymphopoietin)	1	-0.273	104	85.9	inactive
TSLP (thymic stromal lymphopoietin)	2	-0.102	90.8	84.6	inactive
TSLP (thymic stromal lymphopoietin)	3	-0.217	129	111	inactive

Next part, starting with the last 7 of the part before.
gene	reagent	log2 vehicle/camptothecin viability	viability with camptothecin (% of control)	viability without drug (% of control)	activity call
NR2F2 (nuclear receptor subfamily 2 group F member 2)	1	0.163	114	127	inactive
NR2F2 (nuclear receptor subfamily 2 group F member 2)	2	-0.287	94.2	77.2	inactive
NR2F2 (nuclear receptor subfamily 2 group F member 2)	3	-0.289	84	68.7	inactive
NR2F2 (nuclear receptor subfamily 2 group F member 2)	4	-0.0862	57.8	54.4	inactive
TSLP (thymic stromal lymphopoietin)	1	-0.273	104	85.9	inactive
TSLP (thymic stromal lymphopoietin)	2	-0.102	90.8	84.6	inactive
TSLP (thymic stromal lymphopoietin)	3	-0.217	129	111	inactive
XPNPEP2 (X-prolyl aminopeptidase 2)	1	-0.374	66.3	51.2	inactive
XPNPEP2 (X-prolyl aminopeptidase 2)	2	-0.211	68.6	59.3	inactive
XPNPEP2 (X-prolyl aminopeptidase 2)	3	0.0537	99.8	104	inactive
XPNPEP2 (X-prolyl aminopeptidase 2)	4	0.0862	112	119	inactive
ENPP3 (ectonucleotide pyrophosphatase/phosphodiesterase 3)	1	-0.264	107	89.3	inactive
ENPP3 (ectonucleotide pyrophosphatase/phosphodiesterase 3)	2	-0.368	79.2	61.3	inactive
ENPP3 (ectonucleotide pyrophosphatase/phosphodiesterase 3)	3	-0.526	100	69.6	inactive
ENPP3 (ectonucleotide pyrophosphatase/phosphodiesterase 3)	4	-0.123	21.9	20.1	inactive
TRIM14 (tripartite motif containing 14)	1	-0.103	69.2	64.4	inactive
TRIM14 (tripartite motif containing 14)	2	-0.399	85.3	64.7	inactive
TRIM14 (tripartite motif containing 14)	3	-0.12	111	102	inactive
TRIM14 (tripartite motif containing 14)	4	-0.173	114	101	inactive
PCBD1 (pterin-4 alpha-carbinolamine dehydratase 1)	1	-0.283	115	94.5	inactive
PCBD1 (pterin-4 alpha-carbinolamine dehydratase 1)	2	0.108	68.7	74	inactive
PCBD1 (pterin-4 alpha-carbinolamine dehydratase 1)	3	-0.211	43.3	37.4	inactive
PCBD1 (pterin-4 alpha-carbinolamine dehydratase 1)	4	0.252	64.8	77.2	inactive
GRID2 (glutamate ionotropic receptor delta type subunit 2)	1	-0.0175	46.7	46.1	inactive
GRID2 (glutamate ionotropic receptor delta type subunit 2)	2	-0.0227	81.1	79.8	inactive
GRID2 (glutamate ionotropic receptor delta type subunit 2)	3	-0.0938	94.9	88.9	inactive
GRID2 (glutamate ionotropic receptor delta type subunit 2)	4	-0.257	98.4	82.3	inactive
